In the supplement of paper PMC10849652:
Some of the results follow.

The chains behind the UniProt entries cited, without tags or fusion partners. Where a name states a change or a piece, a line headed by the entry shows the natural chain unless it says otherwise.
UniProt Q5W0V3: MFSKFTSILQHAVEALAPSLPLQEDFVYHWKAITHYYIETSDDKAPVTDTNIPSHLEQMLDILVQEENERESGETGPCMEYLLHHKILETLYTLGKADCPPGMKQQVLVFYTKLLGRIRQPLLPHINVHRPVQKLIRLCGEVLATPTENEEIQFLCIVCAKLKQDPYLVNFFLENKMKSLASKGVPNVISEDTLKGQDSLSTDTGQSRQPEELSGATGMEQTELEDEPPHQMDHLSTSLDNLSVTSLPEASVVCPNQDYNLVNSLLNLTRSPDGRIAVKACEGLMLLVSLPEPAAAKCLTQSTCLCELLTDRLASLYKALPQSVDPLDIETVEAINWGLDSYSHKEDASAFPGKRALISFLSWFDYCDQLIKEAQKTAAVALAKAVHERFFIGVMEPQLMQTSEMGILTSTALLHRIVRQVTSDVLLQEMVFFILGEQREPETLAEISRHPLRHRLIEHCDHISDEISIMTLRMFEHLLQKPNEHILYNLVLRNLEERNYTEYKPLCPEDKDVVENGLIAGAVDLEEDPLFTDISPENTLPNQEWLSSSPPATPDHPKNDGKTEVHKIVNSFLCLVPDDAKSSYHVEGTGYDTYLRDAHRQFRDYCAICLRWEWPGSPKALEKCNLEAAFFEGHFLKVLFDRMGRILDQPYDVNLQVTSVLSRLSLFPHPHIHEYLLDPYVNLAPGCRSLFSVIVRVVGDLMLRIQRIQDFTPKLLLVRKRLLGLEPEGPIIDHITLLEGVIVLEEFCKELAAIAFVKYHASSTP
UniProt P16422: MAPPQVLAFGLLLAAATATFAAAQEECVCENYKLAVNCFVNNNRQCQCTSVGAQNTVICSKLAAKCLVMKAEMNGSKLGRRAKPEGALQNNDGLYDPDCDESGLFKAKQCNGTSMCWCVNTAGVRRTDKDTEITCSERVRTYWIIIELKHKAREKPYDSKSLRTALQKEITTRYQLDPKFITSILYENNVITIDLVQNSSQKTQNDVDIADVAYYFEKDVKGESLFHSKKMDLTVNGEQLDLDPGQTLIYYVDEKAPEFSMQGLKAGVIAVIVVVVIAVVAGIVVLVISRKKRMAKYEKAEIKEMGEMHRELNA
UniProt Q96RQ1: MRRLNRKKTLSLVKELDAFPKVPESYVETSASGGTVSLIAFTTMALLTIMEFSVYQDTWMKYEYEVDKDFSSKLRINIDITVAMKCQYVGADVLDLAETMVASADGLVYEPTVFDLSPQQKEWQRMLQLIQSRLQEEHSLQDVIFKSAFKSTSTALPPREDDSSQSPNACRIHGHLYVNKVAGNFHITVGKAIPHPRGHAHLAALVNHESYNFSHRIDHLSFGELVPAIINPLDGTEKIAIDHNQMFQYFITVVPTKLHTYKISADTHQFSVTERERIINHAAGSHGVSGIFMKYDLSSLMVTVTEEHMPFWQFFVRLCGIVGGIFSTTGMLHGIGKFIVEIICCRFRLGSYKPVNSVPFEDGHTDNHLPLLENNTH
UniProt Q96B26, whole entry, looked up: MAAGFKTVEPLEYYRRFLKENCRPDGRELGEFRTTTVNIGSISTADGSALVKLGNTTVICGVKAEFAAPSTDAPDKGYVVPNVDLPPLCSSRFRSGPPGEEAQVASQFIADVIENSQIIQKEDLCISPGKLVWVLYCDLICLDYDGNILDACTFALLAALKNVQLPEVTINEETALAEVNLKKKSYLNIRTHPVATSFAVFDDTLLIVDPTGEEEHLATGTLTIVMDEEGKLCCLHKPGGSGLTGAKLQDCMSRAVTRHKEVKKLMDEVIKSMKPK
UniProt Q9Y6I3: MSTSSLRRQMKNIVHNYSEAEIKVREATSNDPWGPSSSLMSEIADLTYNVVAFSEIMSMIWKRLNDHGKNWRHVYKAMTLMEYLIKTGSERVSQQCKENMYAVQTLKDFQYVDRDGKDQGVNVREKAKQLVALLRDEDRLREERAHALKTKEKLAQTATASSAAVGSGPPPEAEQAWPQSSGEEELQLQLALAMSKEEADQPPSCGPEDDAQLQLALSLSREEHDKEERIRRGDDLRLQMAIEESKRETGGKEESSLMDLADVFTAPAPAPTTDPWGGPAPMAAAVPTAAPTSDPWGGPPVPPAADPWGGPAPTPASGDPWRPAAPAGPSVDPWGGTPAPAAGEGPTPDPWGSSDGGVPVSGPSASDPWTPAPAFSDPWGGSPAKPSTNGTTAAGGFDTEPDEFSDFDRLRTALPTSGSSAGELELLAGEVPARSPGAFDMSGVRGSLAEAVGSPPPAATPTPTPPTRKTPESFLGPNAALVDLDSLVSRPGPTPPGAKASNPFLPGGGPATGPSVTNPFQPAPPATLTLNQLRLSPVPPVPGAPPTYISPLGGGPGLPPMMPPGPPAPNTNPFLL
UniProt Q9BSJ8: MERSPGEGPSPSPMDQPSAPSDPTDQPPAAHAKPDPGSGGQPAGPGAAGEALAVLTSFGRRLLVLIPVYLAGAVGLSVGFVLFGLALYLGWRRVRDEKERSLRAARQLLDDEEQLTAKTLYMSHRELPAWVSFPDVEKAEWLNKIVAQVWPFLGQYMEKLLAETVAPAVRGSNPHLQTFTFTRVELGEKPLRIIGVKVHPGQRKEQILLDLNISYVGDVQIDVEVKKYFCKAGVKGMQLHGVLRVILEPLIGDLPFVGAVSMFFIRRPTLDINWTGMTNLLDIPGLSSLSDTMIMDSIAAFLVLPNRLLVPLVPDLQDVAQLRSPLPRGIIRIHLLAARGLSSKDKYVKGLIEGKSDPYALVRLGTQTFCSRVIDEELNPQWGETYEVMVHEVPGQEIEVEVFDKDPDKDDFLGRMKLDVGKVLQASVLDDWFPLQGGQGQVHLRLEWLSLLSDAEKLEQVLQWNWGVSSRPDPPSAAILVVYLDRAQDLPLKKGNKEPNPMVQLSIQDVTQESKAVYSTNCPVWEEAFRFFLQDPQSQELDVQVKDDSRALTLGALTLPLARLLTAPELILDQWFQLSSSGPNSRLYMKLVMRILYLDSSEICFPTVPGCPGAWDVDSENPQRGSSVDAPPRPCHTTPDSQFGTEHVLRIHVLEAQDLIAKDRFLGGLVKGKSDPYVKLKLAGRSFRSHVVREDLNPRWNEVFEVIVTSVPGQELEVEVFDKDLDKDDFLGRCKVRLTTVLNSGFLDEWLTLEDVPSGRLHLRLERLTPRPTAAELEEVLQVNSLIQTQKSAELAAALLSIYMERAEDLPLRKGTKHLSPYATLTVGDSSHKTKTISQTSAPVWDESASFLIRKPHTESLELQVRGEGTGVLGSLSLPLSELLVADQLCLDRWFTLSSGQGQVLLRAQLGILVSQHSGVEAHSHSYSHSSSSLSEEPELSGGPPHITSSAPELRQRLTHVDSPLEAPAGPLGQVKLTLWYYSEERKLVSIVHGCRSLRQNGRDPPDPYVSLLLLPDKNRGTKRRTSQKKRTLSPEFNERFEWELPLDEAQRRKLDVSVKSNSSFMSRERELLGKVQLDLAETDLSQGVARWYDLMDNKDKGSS
UniProt Q9GZU8: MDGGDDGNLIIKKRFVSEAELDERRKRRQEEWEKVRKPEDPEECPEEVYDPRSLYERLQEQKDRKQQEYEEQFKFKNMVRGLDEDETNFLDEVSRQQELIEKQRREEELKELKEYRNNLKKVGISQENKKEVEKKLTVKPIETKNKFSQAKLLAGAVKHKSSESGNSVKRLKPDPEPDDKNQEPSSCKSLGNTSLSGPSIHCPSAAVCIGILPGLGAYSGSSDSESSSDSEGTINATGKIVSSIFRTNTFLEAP
UniProt Q9C073: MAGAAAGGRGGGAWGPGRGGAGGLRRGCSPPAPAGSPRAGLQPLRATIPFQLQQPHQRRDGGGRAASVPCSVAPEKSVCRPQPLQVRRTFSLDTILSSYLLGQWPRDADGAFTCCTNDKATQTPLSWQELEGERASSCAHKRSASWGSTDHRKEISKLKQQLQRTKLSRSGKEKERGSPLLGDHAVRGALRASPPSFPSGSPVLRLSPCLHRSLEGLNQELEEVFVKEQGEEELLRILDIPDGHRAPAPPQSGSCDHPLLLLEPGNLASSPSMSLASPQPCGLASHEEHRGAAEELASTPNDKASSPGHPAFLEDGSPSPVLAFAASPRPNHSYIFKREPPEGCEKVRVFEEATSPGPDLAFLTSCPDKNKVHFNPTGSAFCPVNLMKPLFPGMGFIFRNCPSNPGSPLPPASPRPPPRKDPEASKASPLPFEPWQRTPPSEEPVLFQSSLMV
UniProt Q9NQT5, whole entry, looked up: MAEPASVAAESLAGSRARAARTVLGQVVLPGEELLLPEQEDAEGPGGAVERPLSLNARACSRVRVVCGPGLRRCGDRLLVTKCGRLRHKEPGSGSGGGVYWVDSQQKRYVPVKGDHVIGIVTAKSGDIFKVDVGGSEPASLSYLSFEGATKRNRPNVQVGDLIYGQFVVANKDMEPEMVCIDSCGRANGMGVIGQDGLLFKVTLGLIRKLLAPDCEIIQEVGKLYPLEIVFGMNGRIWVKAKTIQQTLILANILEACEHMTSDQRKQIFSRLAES
UniProt Q96DZ1: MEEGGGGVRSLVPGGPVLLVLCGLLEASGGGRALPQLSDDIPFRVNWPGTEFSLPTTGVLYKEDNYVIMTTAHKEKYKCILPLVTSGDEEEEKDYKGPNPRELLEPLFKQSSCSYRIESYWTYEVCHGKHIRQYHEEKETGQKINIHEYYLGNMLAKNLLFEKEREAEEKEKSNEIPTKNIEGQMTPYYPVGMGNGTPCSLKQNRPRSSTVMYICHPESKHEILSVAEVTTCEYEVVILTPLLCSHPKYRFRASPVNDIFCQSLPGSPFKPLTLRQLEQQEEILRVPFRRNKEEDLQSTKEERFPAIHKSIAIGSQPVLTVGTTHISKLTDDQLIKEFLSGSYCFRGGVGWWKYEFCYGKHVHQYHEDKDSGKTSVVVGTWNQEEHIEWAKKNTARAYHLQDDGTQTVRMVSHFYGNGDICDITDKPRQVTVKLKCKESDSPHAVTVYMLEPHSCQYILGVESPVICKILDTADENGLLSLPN
UniProt Q9NZB2: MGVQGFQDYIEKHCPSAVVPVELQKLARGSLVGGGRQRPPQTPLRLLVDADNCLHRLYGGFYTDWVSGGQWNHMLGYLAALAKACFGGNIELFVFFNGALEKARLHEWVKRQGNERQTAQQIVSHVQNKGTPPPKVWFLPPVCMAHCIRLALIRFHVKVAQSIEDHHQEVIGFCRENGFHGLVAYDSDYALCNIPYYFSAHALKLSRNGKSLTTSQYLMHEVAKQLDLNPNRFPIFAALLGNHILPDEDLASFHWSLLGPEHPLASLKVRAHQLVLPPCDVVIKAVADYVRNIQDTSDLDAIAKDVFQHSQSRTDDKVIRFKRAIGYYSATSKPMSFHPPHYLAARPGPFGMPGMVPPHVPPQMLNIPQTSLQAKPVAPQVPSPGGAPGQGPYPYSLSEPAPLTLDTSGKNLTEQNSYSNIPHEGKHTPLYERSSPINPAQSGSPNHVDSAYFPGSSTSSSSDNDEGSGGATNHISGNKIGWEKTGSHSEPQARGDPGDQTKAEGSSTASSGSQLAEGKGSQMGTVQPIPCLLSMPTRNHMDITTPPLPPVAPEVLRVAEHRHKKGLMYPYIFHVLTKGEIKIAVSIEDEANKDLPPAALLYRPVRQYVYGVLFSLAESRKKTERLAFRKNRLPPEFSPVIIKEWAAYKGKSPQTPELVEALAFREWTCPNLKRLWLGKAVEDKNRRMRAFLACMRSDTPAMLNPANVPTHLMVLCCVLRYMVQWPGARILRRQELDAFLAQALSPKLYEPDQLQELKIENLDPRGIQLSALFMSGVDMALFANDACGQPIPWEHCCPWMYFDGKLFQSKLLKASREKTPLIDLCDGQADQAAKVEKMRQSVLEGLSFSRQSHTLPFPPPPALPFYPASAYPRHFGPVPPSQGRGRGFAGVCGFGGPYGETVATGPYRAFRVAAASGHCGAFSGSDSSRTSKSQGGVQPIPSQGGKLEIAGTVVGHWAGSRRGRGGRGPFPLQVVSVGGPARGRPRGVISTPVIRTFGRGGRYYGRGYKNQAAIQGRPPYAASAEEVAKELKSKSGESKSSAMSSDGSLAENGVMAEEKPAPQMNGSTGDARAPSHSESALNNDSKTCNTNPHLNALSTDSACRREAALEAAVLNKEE
UniProt P07099: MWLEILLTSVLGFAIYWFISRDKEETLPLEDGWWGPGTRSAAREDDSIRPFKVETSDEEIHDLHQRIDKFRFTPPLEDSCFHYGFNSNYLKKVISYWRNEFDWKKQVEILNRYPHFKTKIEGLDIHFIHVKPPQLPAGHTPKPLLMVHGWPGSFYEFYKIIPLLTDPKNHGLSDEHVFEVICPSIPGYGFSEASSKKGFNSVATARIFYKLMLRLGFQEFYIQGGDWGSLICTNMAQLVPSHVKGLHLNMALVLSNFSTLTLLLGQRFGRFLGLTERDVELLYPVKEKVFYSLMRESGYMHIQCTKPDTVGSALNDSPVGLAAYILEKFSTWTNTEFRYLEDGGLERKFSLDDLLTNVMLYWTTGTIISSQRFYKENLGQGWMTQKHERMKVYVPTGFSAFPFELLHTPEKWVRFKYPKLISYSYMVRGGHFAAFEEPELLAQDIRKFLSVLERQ

Key:
Assay in all cases: log2 fold change, soluble protein after heating vs DMSO (PISA); higher = thermal stabilisation; K562 cells, 10 uM, 30 min; active = over 0.2 and 3.5 SD of the protein, either way, in both replicates (recomputed)
[1] = compound: NC(=O)Nc1cc(-c2cccc(F)c2)sc1C(=O)N[C@H]1CCCNC1
How it was run: (§1)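 K562 cells at 2×10^6 cells/mL were treated with 10 μM compound for 30 min. Aliquots were heated for 3 min across 48°C-58°C, pooled, and extracted in PBS with 0.5% NP-40 at 4°C; soluble protein was the supernatant after 21,000xg for 90 min. Soluble protein was quantified by TMTpro 16plex LC-MS/MS with channel sums equalised, and reported as log2 fold change in thermal stability against DMSO controls, with values from duplicates.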

[2] = compound: NC(=O)c1cnc(N[C@@H]2CCCC[C@@H]2N)nc1Nc1cccc(-n2nccn2)c1
How it was run: as §1

[3] = compound: NC1(c2ccc(-c3nc4ccn5c(=O)[nH]nc5c4cc3-c3ccccc3)cc2)CCC1
How it was run: as §1

[4] = compound: NCC(=O)Nc1ccc(-n2nc(C(F)(F)F)cc2-c2ccc3c(ccc4ccccc43)c2)cc1
How it was run: as §1

[5] = compound: Nc1ccccc1NC(=O)c1ccc(CNC(=O)OCc2cccnc2)cc1 [entinostat]
How it was run: as §1

[6] = compound: O=C(CCCCCCC(=O)Nc1ccccc1)NO [vorinostat]
How it was run: as §1

[7] = compound: O=C(CCCCCCNC(=O)c1cnc(N(c2ccccc2)c2ccccc2Cl)nc1)NO [citarinostat]
How it was run: as §1

[8] = compound: O=C(O)c1ccc2c(c1)nc(Nc1cccc(Cl)c1)c1ccncc12 [silmitasertib]
How it was run: as §1

[9] = compound: O=C1NC(=O)C(c2cnc3ccccn23)=C1c1cn2c3c(cc(F)cc13)CN(C(=O)N1CCCCC1)CC2
How it was run: as §1

[10] = compound: c1cc(OCCN2CCCCC2)cc(-c2n[nH]c3ccc(-c4nnc[nH]4)cc23)c1
How it was run: as §1

| Target | log2 fold change [1] | log2 fold change [2] | log2 fold change [3] | log2 fold change [4] | log2 fold change [5] | log2 fold change [6] | log2 fold change [7] | log2 fold change [8] | log2 fold change [9] | log2 fold change [10] |
| --- | --- | --- | --- | --- | --- | --- | --- | --- | --- | --- |
| ERGIC1 (UniProt Q969X5) | inactive: -0.105 | inactive: -0.052 | inactive: -0.068 | inactive: -0.027 | inactive: -0.054 | inactive: 0.071 | inactive: 0.073 | inactive: -0.004 | inactive: -0.004 | inactive: -0.002 |
| FAM160B1 (UniProt Q5W0V3) | inactive: 0.04 | inactive: -0.038 | active: -0.211 | inactive: -0.043 | inactive: 0.026 | inactive: 0.139 | inactive: 0.069 | inactive: -0.026 | inactive: -0.064 | inactive: 0 |
| EPCAM (UniProt P16422) | inactive: -0.072 | inactive: 0.067 | inactive: -0.107 | inactive: 0.032 | inactive: -0.016 | inactive: 0.066 | inactive: 0.061 | inactive: -0.066 | inactive: -0.008 | inactive: -0.039 |
| ERGIC2 (UniProt Q96RQ1) | inactive: 0.003 | inactive: -0.034 | inactive: -0.069 | inactive: -0.044 | inactive: -0.015 | inactive: 0.051 | inactive: 0 | inactive: -0.031 | inactive: -0.045 | inactive: 0 |
| EXOSC8 (UniProt Q96B26) | inactive: -0.048 | inactive: -0.065 | inactive: 0.035 | inactive: -0.032 | inactive: -0.041 | inactive: -0.078 | inactive: -0.009 | inactive: 0.015 | inactive: 0.019 | inactive: -0.046 |
| EPN1 (UniProt Q9Y6I3) | inactive: 0.055 | inactive: -0.01 | inactive: -0.123 | inactive: -0.026 | inactive: 0.006 | inactive: 0.027 | inactive: 0.039 | inactive: -0.033 | inactive: 0.015 | inactive: -0.043 |
| FAM114A2 (UniProt Q9NRY5) | inactive: 0.023 | inactive: -0.089 | inactive: -0.151 | inactive: -0.062 | inactive: 0.051 | inactive: 0.034 | inactive: 0.05 | inactive: 0.02 | inactive: -0.016 | inactive: -0.013 |
| ESYT1 isoform 2 (UniProt Q9BSJ8) | inactive: 0.062 | inactive: 0.004 | inactive: -0.004 | inactive: -0.044 | inactive: 0.086 | inactive: 0.122 | inactive: 0.033 | inactive: 0.041 | inactive: 0.187 | inactive: -0.048 |
| EPB41L3 (UniProt Q9Y2J2) | inactive: -0.19 | inactive: 0.014 | inactive: 0.025 | inactive: -0.002 | inactive: -0.046 | inactive: 0.048 | inactive: 0.011 | inactive: -0.04 | inactive: -0.096 | inactive: -0.015 |
| EXOC5 (UniProt O00471) | inactive: 0.01 | inactive: -0.101 | inactive: -0.222 | inactive: -0.063 | inactive: 0.069 | inactive: 0.086 | inactive: 0.027 | inactive: 0.042 | inactive: -0.02 | inactive: -0.153 |
| ERCC6 (UniProt Q03468) | inactive: -0.288 | inactive: -0.022 | inactive: -0.062 | inactive: 0.034 | inactive: -0.191 | inactive: -0.003 | inactive: -0.213 | inactive: 0.079 | inactive: 0.013 | inactive: -0.236 |
| EPS15L1 isoform 2 (UniProt Q9UBC2) | inactive: -0.022 | inactive: -0.051 | inactive: -0.131 | inactive: -0.025 | inactive: 0.067 | inactive: 0.048 | inactive: 0.06 | inactive: 0.072 | inactive: 0 | inactive: -0.016 |
| EXOSC5 (UniProt Q9NQT4) | inactive: 0.034 | inactive: -0.023 | inactive: 0.007 | inactive: 0.039 | inactive: -0.008 | inactive: -0.014 | inactive: 0.034 | inactive: -0.036 | inactive: 0.052 | inactive: -0.03 |
| ETNK1 (UniProt Q9HBU6) | active: 0.25 | inactive: 0.011 | inactive: -0.144 | inactive: -0.057 | inactive: 0.089 | inactive: -0.01 | inactive: 0.019 | inactive: 0.041 | inactive: 0.208 | inactive: -0.084 |
| ERGIC3 isoform 3 (UniProt Q9Y282) | inactive: 0.026 | inactive: -0.007 | inactive: -0.067 | inactive: 0.049 | inactive: 0.041 | inactive: 0.005 | inactive: 0.038 | inactive: 0.007 | inactive: -0.02 | inactive: -0.043 |
| FADS1, A0A0A0MR51 | inactive: -0.041 | inactive: -0.036 | inactive: -0.074 | inactive: 0.036 | inactive: -0.002 | inactive: -0.105 | inactive: -0.029 | inactive: 0.014 | inactive: -0.15 | inactive: -0.029 |
| FAM192A (UniProt Q9GZU8) | inactive: -0.018 | inactive: -0.054 | inactive: 0.051 | inactive: 0.018 | inactive: -0.038 | inactive: -0.074 | inactive: -0.023 | inactive: 0.006 | inactive: -0.028 | inactive: 0.01 |
| FAM117A (UniProt Q9C073) | inactive: -0.135 | inactive: 0 | inactive: -0.05 | inactive: -0.03 | inactive: 0.046 | inactive: -0.011 | inactive: 0.043 | active: -0.422 | inactive: 0.038 | active: -0.251 |
| EXOC3 (UniProt O60645) | inactive: -0.007 | inactive: -0.175 | inactive: -0.123 | inactive: -0.075 | inactive: 0.036 | inactive: 0.16 | inactive: 0.006 | inactive: 0.055 | inactive: 0.028 | inactive: -0.067 |
| EXOSC2 (UniProt Q13868) | inactive: 0.053 | inactive: -0.034 | inactive: 0.013 | inactive: -0.001 | inactive: -0.015 | inactive: -0.041 | inactive: 0.008 | inactive: 0.013 | inactive: 0.062 | inactive: -0.056 |
| EXOSC3 (UniProt Q9NQT5) | inactive: 0.035 | inactive: -0.018 | inactive: -0.054 | inactive: -0.03 | inactive: -0.024 | inactive: 0.008 | inactive: 0.044 | inactive: 0.007 | inactive: 0 | inactive: -0.033 |
| EXTL2 (UniProt Q9UBQ6) | inactive: -0.051 | inactive: -0.033 | inactive: -0.018 | inactive: 0.039 | inactive: -0.01 | inactive: 0.019 | inactive: -0.044 | inactive: -0.011 | inactive: 0.003 | inactive: -0.223 |
| F5 (UniProt P12259) | inactive: -0.095 | inactive: -0.08 | inactive: 0.048 | inactive: -0.024 | inactive: -0.045 | inactive: -0.016 | inactive: -0.019 | inactive: 0.127 | inactive: 0.084 | inactive: 0.002 |
| ERLEC1 (UniProt Q96DZ1) | inactive: -0.079 | inactive: -0.025 | inactive: -0.058 | inactive: -0.01 | inactive: 0.006 | inactive: -0.054 | inactive: 0.001 | inactive: 0.063 | inactive: -0.021 | inactive: -0.03 |
| FAM120A isoform 6 (UniProt Q9NZB2) | inactive: 0.009 | inactive: 0.102 | inactive: 0.203 | inactive: 0.119 | inactive: -0.037 | inactive: -0.078 | inactive: -0.094 | inactive: 0.148 | inactive: 0.24 | inactive: -0.122 |
| ERP29 (UniProt P30040) | inactive: -0.015 | inactive: 0.012 | inactive: 0.01 | inactive: 0.04 | inactive: -0.006 | inactive: 0.008 | inactive: 0.04 | inactive: -0.032 | inactive: -0.034 | inactive: -0.039 |
| EPHX1 (UniProt P07099) | inactive: 0.028 | inactive: 0.023 | inactive: -0.014 | inactive: 0.083 | inactive: -0.051 | inactive: -0.058 | inactive: 0.047 | inactive: -0.011 | inactive: -0.015 | inactive: -0.022 |

An excerpt of these results, with bars between the fields:
Target | log2 fold change [1] | log2 fold change [2] | log2 fold change [3] | log2 fold change [4] | log2 fold change [5] | log2 fold change [6] | log2 fold change [7] | log2 fold change [8] | log2 fold change [9] | log2 fold change [10]
FADS1, A0A0A0MR51 | inactive: -0.041 | inactive: -0.036 | inactive: -0.074 | inactive: 0.036 | inactive: -0.002 | inactive: -0.105 | inactive: -0.029 | inactive: 0.014 | inactive: -0.15 | inactive: -0.029
ERLEC1 (UniProt Q96DZ1) | inactive: -0.079 | inactive: -0.025 | inactive: -0.058 | inactive: -0.01 | inactive: 0.006 | inactive: -0.054 | inactive: 0.001 | inactive: 0.063 | inactive: -0.021 | inactive: -0.03
